From PubChem BioAssay AID2417 (National Center for Advancing Translational Sciences (NCATS), 2010)
Out of some 140,000 compounds screened, about 4,300 (3.1%) were called active. Inconclusive results, whose numbers are uncertain, are shown with a selection of clear calls.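 How the source made its calls: active means readout at or below -70, meaning at least 70% loss of cells showing the perinucleolar compartment, a nuclear body marking cancer cells; inconclusive means readout between -30 and a set limit; inactive means the rest.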

Assay: High Content Assay for Compounds that inhibit the Assembly of the Perinucleolar Compartment;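 further: plate controls were DMSO wells for no effect and camptothecin positive control wells for full effect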
Conditions: PC3M PTB-GFP, PNC prevalence imaging, 16 h; at 10 µM; stronger effect = lower value
How it was run: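 Compounds are pinned in duplicate onto adhered PC3M cells stably expressing GFP-tagged PTB and incubated 16 h at 37 C. Cells are then fixed, nuclei stained with Hoechst, and PNC-positive cells counted.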

SMILES	activity change (PNC), negative = inhibition
CC12CCC(C(=O)Nc3cccc(NC(=O)C45CCC(C)(C(=O)O4)C5(C)C)n3)(OC1=O)C2(C)C	inconclusive: -41.8%
Clc1ccc(CN2C3=NCCN3c3ccccc32)cc1	inconclusive: -30.8%
CN(C)CCOc1ncnc2c1oc1ccccc12	active: -112%
CCc1ccc(S(=O)(=O)N2CC(=O)Nc3ccccc32)cc1	inactive: 31.2%
CCOc1ccc(N(C)S(=O)(=O)c2ccc3[nH]cc(C(=O)NCC4CCCO4)c(=O)c3c2)cc1 (stereo not given)	inconclusive: -52.3%
COC(=O)c1ccc(CSc2n[nH]c(=S)s2)o1	inconclusive: -44.2%
COc1ccc(C2C3=C(CC(C)(C)CC3=O)OC(N)=C2[N+](=O)[O-])cc1 (stereo not given)	inactive: 37%
CCCCOc1ncnc2c1[nH]c1ccc(OC)cc12	inactive: -9.75%
O=C(COC(=O)[C@@H]1CC(O)CN1S(=O)(=O)c1ccccc1[N+](=O)[O-])Nc1ccc2ccccc2c1 (stereo not given in full)	inactive: 56.5%
O=C(CCN1CCN(CC(=O)Nc2ccccc2Cl)CC1)Nc1ccccc1F	inactive: -22.2%
O=C(Cc1ccccc1F)Nc1cccc2cccnc12	inconclusive: -46.2%
CCCC(=O)NNc1cc(=O)c2c(=O)n(C)c(=O)n(C)c2[nH]1	inconclusive: -42%
CC(C)NC(=O)/C(=C/c1cn(-c2ccccc2)nc1-c1cccc([N+](=O)[O-])c1)NC(=O)c1ccccc1	inconclusive: -51.3%
Cc1ccc(C(=O)NCC2CCCO2)cc1[N+](=O)[O-] (stereo not given)	inactive: 6.84%
CCOC(=O)c1ccc(NS(=O)C23CC4CC(CC(C4)C2)C3)cc1 (stereo not given)	inconclusive: -72.1%
CCOC(=O)c1nn(-c2ccc(C)cc2)c(=O)c2c(N)scc12	inconclusive: -42.2%
O=C(Cn1cccc1)NC1CCCCCC1	inactive: 35.5%
O=C(O)c1ccccc1-c1ccccc1C(=O)Nc1cccc2ccccc12	inconclusive: -66.2%
Nc1ccccc1NC1=CC(=O)CC(c2ccco2)C1 (stereo not given)	inconclusive: -79.6%
Cc1ccc(-n2c(CSc3nc(C)cc(C)n3)nnc2SCC(=O)N2CCCC2)cc1	active: -100%
CCCC1C(C#N)=C(N)Oc2n[nH]c(C(C)(C)C)c21 (stereo not given)	active: -114%
O=C(CN1CCCCCC1)N/N=C/c1cccc(Cl)c1	inconclusive: -53.4%
O=C(COC(=O)c1ccc([N+](=O)[O-])o1)Nc1cccc(S(=O)(=O)N2CCOCC2)c1	inconclusive: -37.2%
OCCNc1nc(C2CC2)nc2c1nnn2Cc1ccccc1Cl	inconclusive: -39.4%
CC(C)C(=O)Nc1ccc(S(=O)(=O)Nc2nccc(/C=C/c3ccccc3)n2)cc1	inactive: 12.9%

Structures listed so far that have an aryl methoxy group:
SMILES	activity change (PNC), negative = inhibition
COc1ccc(C2C3=C(CC(C)(C)CC3=O)OC(N)=C2[N+](=O)[O-])cc1 (stereo not given)	inactive: 37%
CCCCOc1ncnc2c1[nH]c1ccc(OC)cc12	inactive: -9.75%
